Results: patent publication US9458447B2, “MPHOSPH1 peptides and vaccines including the same” (OncoTherapy Science, Inc., priority 2011, dated 2016)
Part of at least one peptide drawing is inferred or uncertain, most often the ends. Where no end group is shown, it is not given here.

Columns and labels:
[1] = system: T2 cells; assay: CTL clone recognition of target cells (IFN-gamma ELISA), MPHOSPH1-negative control; format: cell-based, human; conditions: express HLA-A*0201 but not MPHOSPH1
[2] = system: J82 cells; assay: CTL clone recognition of target cells endogenously expressing MPHOSPH1 and HLA-A*0201 (IFN-gamma ELISA); format: cell-based, human; conditions: express both MPHOSPH1 and HLA-A*0201
[3] = system: COS7 cells transfected with both the full length of MPHOSPH1 and HLA-A*0206 gene; assay: CTL activity against cells forcibly expressing MPHOSPH1 and HLA-A*0206 (IFN-gamma ELISA); format: cell-based; conditions: COS7 cells expressing both MPHOSPH1 and HLA-A*0206
[4] = system: T2 cells pulsed with the corresponding peptide; assay: IFN-gamma ELISA of established CTL lines; format: cell-based, human; conditions: T2 cells pulsed with corresponding peptide vs T2 cells without peptide pulse
Protocol: CTLs were expanded in culture using the method similar to the one described by Riddell et al. (Walter E A et al., N Engl J Med 1995 Oct. 19, 333(16): 1038-44; Riddell S R et al., Nat Med 1996 February, 2(2): 216-23). A total of 5×10^4 CTLs were suspended in 25 ml of AIM-V/5% AS medium with 2 kinds of human B-lymphoblastoid cell lines, inactivated by Mitomycin C, in the presence of 40 ng/ml of anti-CD3 monoclonal antibody (Pharmingen). One day after initiating the cultures, 120 IU/ml of IL-2 were added to the cultures. The cultures were fed with fresh AIM-V/5% AS medium containing 30 IU/ml of IL-2 on days 5, 8 and 11 (Tanaka H et al., Br J Cancer 2001 Jan. 5, 84(1): 94-9; Umano Y et al., Br J Cancer 2001 Apr. 20, 84(8): 1052-7; Uchida N et al., Clin Cancer Res 2004 Dec. 15, 10(24): 8577-86; Suda T et al., Cancer Sci 2006 May, 97(5): 411-9; Watanabe T et al., Cancer Sci 2005 August, 96(8): 498-506).
(§1) To examine specific CTL activity, interferon(IFN)-gamma enzyme-linked immunospot (ELISPOT) assay and IFN-gamma enzyme-linked immunosorbent assay (ELISA) were performed. Peptide-pulsed T2 (1×10^4/well) was prepared as stimulator cells. Cultured cells in 48-well plate, CTL lines and CTL clones were used as responder cells. IFN-gamma ELISPOT assay and IFN-gamma ELISA assay were performed under manufacture procedure.

[5] = system: T2 cells pulsed with corresponding peptide; assay: IFN-gamma ELISA of CTL clones established by limiting dilution; format: cell-based, human
Protocol: The dilutions were made to have 0.3, 1, and 3 CTLs/well in 96 round-bottomed micro titer plate (Nalge Nunc International). CTLs were cultured with 1×10^4 cells/well of 2 kinds of human B-lymphoblastoid cell lines, 30 ng/ml of anti-CD3 antibody, and 125 U/ml of IL-2 in a total of 150 microliter/well of AIM-V Medium containing 5% AS. 50 microliter/well of IL-2 were added to the medium 10 days later to reach a final concentration of 125 U/ml IL-2. CTL activity was tested on the 14th day, and CTL clones were expanded using the same method as described above (Uchida N et al., Clin Cancer Res 2004 Dec. 15, 10(24): 8577-86; Suda T et al., Cancer Sci 2006 May, 97(5): 411-9; Watanabe T et al., Cancer Sci 2005 August, 96(8): 498-506).
as §1

[6] = system: HT1376 cells; assay: CTL clone recognition of target cells (IFN-gamma ELISA), HLA-A*0201-negative control; format: cell-based, human; conditions: express MPHOSPH1 but not HLA-A*0201
[7] = system: COS7 cells transfected with either full length of MPHOSPH1 or HLA-A*0206; assay: CTL activity against single-transfected control cells (IFN-gamma ELISA); format: cell-based; conditions: controls: COS7 transfected with either MPHOSPH1 or HLA-A*0206
[8] = system: peptide-pulsed T2 cells; assay: IFN-gamma ELISPOT assay of CTLs induced with peptide-pulsed DCs; format: cell-based, human; conditions: CTLs from HLA-A*0201 positive donor after 3rd peptide stimulation, day 21; peptide-pulsed T2 vs control wells
Excerpt: Monocyte-derived dendritic cells (DCs) were used as antigen-presenting cells to induce cytotoxic T lymphocyte (CTL) that responses against peptides presented on human leukocyte antigen (HLA). DCs were generated in vitro as described elsewhere (Nakahara S et al., Cancer Res 2003 Jul. 15, 63(14): 4112-8). Specifically, peripheral blood mononuclear cells isolated from a normal volunteer (HLA-A*0201 positive) by Ficoll-Paque plus (Pharmacia) solution were separated by adherence to a plastic tissue culture dish (Becton Dickinson) so as to enrich them as the monocyte fraction. The monocyte-enriched population was cultured in the presence of 1000 U/ml of granulocyte-macrophage colony-stimulating factor (R&D System) and 1000 U/ml of interleukin (IL)-4 (R&D System) in AIM-V Medium (Invitrogen) containing 2% heat-inactivated autologous serum (AS). After 7 days of culture, the cytokine-induced DCs were pulsed with 20 microgram/ml of each of the synthesized peptides in the presence of 3 microgram/ml of beta 2-microglobulin for 3 hr at 37 degrees C. in AIM-V Medium. The generated cells appeared to express DC-associated molecules, such as CD80, CD83, CD86 and HLA class II, on their cell surfaces (data not shown). […]

Sequence: YIYDLFVPVS [SEQ ID NO: 120, YIYDLFVPVS]
- Specific CTL activity of CTL clone [1]: no significant specific CTL activity was detected
- Specific CTL activity of CTL clone [2]: potent CTL activity
- Specific CTL activity of CTL raised against the peptide [3]: potent CTL activity
- IFN-gamma production of CTL lines by IFN-gamma ELISA [4]: potent IFN-gamma production against T2 cells pulsed with the corresponding peptide
- IFN-gamma production from CTL clones by IFN-gamma ELISA [5]: Potent IFN-gamma production was observed
- Specific CTL activity of CTL clone [6]: no significant specific CTL activity was detected
- Specific CTL activity of CTL raised against the peptide [7]: no significant specific CTL activity was detected
- Peptide specific CTL activity (IFN-gamma production) by IFN-gamma ELISPOT [8]: potent IFN-gamma production as compared to the control wells
